Data as given in PubChem BioAssay AID1508597 (Cure First, 2020).

- Assay: 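Knock-downs altering ovarian cancer cell survival with or without PARP inhibitor rucaparib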 (primary screen)
- Cells: human ovarian carcinoma lines grown from tumours: OCI-P5x (papillary serous) and OCI-C5x (clear cell)
- Reagents: siRNA pool against human genes, 1.25 pmol siRNA per well
- Time to read-out: 72 h or 96 h, depending on the cell culture
- Challenge: rucaparib 20 µM (about IC30) or vehicle, present until read-out
- Detection: 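ATP luminescence measured at 72 or 96 h according to the culture, then normalised and expressed as percent viability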
- Direction: viability, normalised: higher = more viable cells remaining
- Call rule: 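Active when normalised viability falls below 80 percent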
- Calls: active = viability under 80%; inactive = viability 80% or more
The deposit covers about 2,100 reagents; below is an unselected part. 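Calls flag viability under 80% in either arm, not effects specific to rucaparib; the reference for percent is not stated.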 Unmarked entries are inactive. A reagent listed more than once was tested more than once; the source does not tell the runs apart. The record does not give: the 100% reference.

gene symbol | rucaparib or vehicle | cell line | technical replicate | viability, normalised (%)
G6PC1 (glucose-6-phosphatase catalytic subunit 1) | Rucaparib | OCI-C5x (clear cell) | 1 | 53.5 (active)
G6PC1 (glucose-6-phosphatase catalytic subunit 1) | Rucaparib | OCI-C5x (clear cell) | 2 | 44.8 (active)
G6PC1 (glucose-6-phosphatase catalytic subunit 1) | Rucaparib | OCI-C5x (clear cell) | 3 | 59.2 (active)
G6PC1 (glucose-6-phosphatase catalytic subunit 1) | Rucaparib | OCI-P5x (serous) | 1 | 71 (active)
G6PC1 (glucose-6-phosphatase catalytic subunit 1) | Rucaparib | OCI-P5x (serous) | 2 | 57.5 (active)
G6PC1 (glucose-6-phosphatase catalytic subunit 1) | Rucaparib | OCI-P5x (serous) | 3 | 61.4 (active)
G6PC1 (glucose-6-phosphatase catalytic subunit 1) | Vehicle | OCI-C5x (clear cell) | 1 | 51.8 (active)
G6PC1 (glucose-6-phosphatase catalytic subunit 1) | Vehicle | OCI-C5x (clear cell) | 2 | 42 (active)
G6PC1 (glucose-6-phosphatase catalytic subunit 1) | Vehicle | OCI-C5x (clear cell) | 3 | 54.1 (active)
G6PC1 (glucose-6-phosphatase catalytic subunit 1) | Vehicle | OCI-P5x (serous) | 1 | 53.5 (active)
G6PC1 (glucose-6-phosphatase catalytic subunit 1) | Vehicle | OCI-P5x (serous) | 2 | 69.8 (active)
G6PC1 (glucose-6-phosphatase catalytic subunit 1) | Vehicle | OCI-P5x (serous) | 3 | 62.1 (active)
PRDM13 (PR/SET domain 13) | Rucaparib | OCI-C5x (clear cell) | 1 | 43.2 (active)
PRDM13 (PR/SET domain 13) | Rucaparib | OCI-C5x (clear cell) | 2 | 40.6 (active)
PRDM13 (PR/SET domain 13) | Rucaparib | OCI-C5x (clear cell) | 3 | 38.5 (active)
PRDM13 (PR/SET domain 13) | Rucaparib | OCI-P5x (serous) | 1 | 37.5 (active)
PRDM13 (PR/SET domain 13) | Rucaparib | OCI-P5x (serous) | 2 | 51.7 (active)
PRDM13 (PR/SET domain 13) | Rucaparib | OCI-P5x (serous) | 3 | 47.8 (active)
PRDM13 (PR/SET domain 13) | Vehicle | OCI-C5x (clear cell) | 1 | 34.2 (active)
PRDM13 (PR/SET domain 13) | Vehicle | OCI-C5x (clear cell) | 2 | 42.5 (active)
PRDM13 (PR/SET domain 13) | Vehicle | OCI-C5x (clear cell) | 3 | 47.7 (active)
PRDM13 (PR/SET domain 13) | Vehicle | OCI-P5x (serous) | 1 | 49.1 (active)
PRDM13 (PR/SET domain 13) | Vehicle | OCI-P5x (serous) | 2 | 58.1 (active)
PRDM13 (PR/SET domain 13) | Vehicle | OCI-P5x (serous) | 3 | 70.5 (active)
RNF8 (ring finger protein 8) | Rucaparib | OCI-C5x (clear cell) | 1 | 40.7 (active)
RNF8 (ring finger protein 8) | Rucaparib | OCI-C5x (clear cell) | 1 | 45.5 (active)
RNF8 (ring finger protein 8) | Rucaparib | OCI-C5x (clear cell) | 2 | 44.7 (active)
RNF8 (ring finger protein 8) | Rucaparib | OCI-C5x (clear cell) | 2 | 38.2 (active)
RNF8 (ring finger protein 8) | Rucaparib | OCI-C5x (clear cell) | 3 | 55.5 (active)
RNF8 (ring finger protein 8) | Rucaparib | OCI-C5x (clear cell) | 3 | 36.1 (active)
RNF8 (ring finger protein 8) | Rucaparib | OCI-P5x (serous) | 1 | 29.4 (active)
RNF8 (ring finger protein 8) | Rucaparib | OCI-P5x (serous) | 1 | 67.9 (active)
RNF8 (ring finger protein 8) | Rucaparib | OCI-P5x (serous) | 2 | 62.1 (active)
RNF8 (ring finger protein 8) | Rucaparib | OCI-P5x (serous) | 2 | 28.2 (active)
RNF8 (ring finger protein 8) | Rucaparib | OCI-P5x (serous) | 3 | 26.8 (active)
RNF8 (ring finger protein 8) | Rucaparib | OCI-P5x (serous) | 3 | 60.8 (active)
RNF8 (ring finger protein 8) | Vehicle | OCI-C5x (clear cell) | 1 | 80.8
RNF8 (ring finger protein 8) | Vehicle | OCI-C5x (clear cell) | 1 | 33.3 (active)
RNF8 (ring finger protein 8) | Vehicle | OCI-C5x (clear cell) | 2 | 41.1 (active)
RNF8 (ring finger protein 8) | Vehicle | OCI-C5x (clear cell) | 2 | 31.2 (active)
RNF8 (ring finger protein 8) | Vehicle | OCI-C5x (clear cell) | 3 | 39 (active)
RNF8 (ring finger protein 8) | Vehicle | OCI-C5x (clear cell) | 3 | 44.4 (active)
RNF8 (ring finger protein 8) | Vehicle | OCI-P5x (serous) | 1 | 61.9 (active)
RNF8 (ring finger protein 8) | Vehicle | OCI-P5x (serous) | 1 | 39.2 (active)
RNF8 (ring finger protein 8) | Vehicle | OCI-P5x (serous) | 2 | 46.6 (active)
RNF8 (ring finger protein 8) | Vehicle | OCI-P5x (serous) | 2 | 54.4 (active)
RNF8 (ring finger protein 8) | Vehicle | OCI-P5x (serous) | 3 | 55.1 (active)
RNF8 (ring finger protein 8) | Vehicle | OCI-P5x (serous) | 3 | 68.5 (active)
PDE6H (phosphodiesterase 6H) | Rucaparib | OCI-C5x (clear cell) | 1 | 69.8 (active)
PDE6H (phosphodiesterase 6H) | Rucaparib | OCI-C5x (clear cell) | 2 | 73.2 (active)
PDE6H (phosphodiesterase 6H) | Rucaparib | OCI-C5x (clear cell) | 3 | 64 (active)
PDE6H (phosphodiesterase 6H) | Rucaparib | OCI-P5x (serous) | 1 | 73 (active)
PDE6H (phosphodiesterase 6H) | Rucaparib | OCI-P5x (serous) | 2 | 85.4
PDE6H (phosphodiesterase 6H) | Rucaparib | OCI-P5x (serous) | 3 | 67.6 (active)
PDE6H (phosphodiesterase 6H) | Vehicle | OCI-C5x (clear cell) | 1 | 65.9 (active)
PDE6H (phosphodiesterase 6H) | Vehicle | OCI-C5x (clear cell) | 2 | 62.4 (active)
PDE6H (phosphodiesterase 6H) | Vehicle | OCI-C5x (clear cell) | 3 | 70.8 (active)
PDE6H (phosphodiesterase 6H) | Vehicle | OCI-P5x (serous) | 1 | 79.9 (active)
PDE6H (phosphodiesterase 6H) | Vehicle | OCI-P5x (serous) | 2 | 78 (active)
PDE6H (phosphodiesterase 6H) | Vehicle | OCI-P5x (serous) | 3 | 103
PBK (PDZ binding kinase) | Rucaparib | OCI-C5x (clear cell) | 1 | 58.8 (active)
PBK (PDZ binding kinase) | Rucaparib | OCI-C5x (clear cell) | 1 | 51.4 (active)
PBK (PDZ binding kinase) | Rucaparib | OCI-C5x (clear cell) | 2 | 45.2 (active)
PBK (PDZ binding kinase) | Rucaparib | OCI-C5x (clear cell) | 2 | 49.5 (active)
PBK (PDZ binding kinase) | Rucaparib | OCI-C5x (clear cell) | 3 | 34.8 (active)
PBK (PDZ binding kinase) | Rucaparib | OCI-C5x (clear cell) | 3 | 61.7 (active)
PBK (PDZ binding kinase) | Rucaparib | OCI-P5x (serous) | 1 | 81.2
PBK (PDZ binding kinase) | Rucaparib | OCI-P5x (serous) | 1 | 39.3 (active)
PBK (PDZ binding kinase) | Rucaparib | OCI-P5x (serous) | 2 | 67.9 (active)
PBK (PDZ binding kinase) | Rucaparib | OCI-P5x (serous) | 2 | 66.1 (active)
PBK (PDZ binding kinase) | Rucaparib | OCI-P5x (serous) | 3 | 87.3
PBK (PDZ binding kinase) | Rucaparib | OCI-P5x (serous) | 3 | 61.7 (active)
PBK (PDZ binding kinase) | Vehicle | OCI-C5x (clear cell) | 1 | 63.4 (active)
PBK (PDZ binding kinase) | Vehicle | OCI-C5x (clear cell) | 1 | 46.2 (active)
PBK (PDZ binding kinase) | Vehicle | OCI-C5x (clear cell) | 2 | 52.8 (active)
PBK (PDZ binding kinase) | Vehicle | OCI-C5x (clear cell) | 2 | 69 (active)
PBK (PDZ binding kinase) | Vehicle | OCI-C5x (clear cell) | 3 | 37.5 (active)
PBK (PDZ binding kinase) | Vehicle | OCI-C5x (clear cell) | 3 | 54.4 (active)
PBK (PDZ binding kinase) | Vehicle | OCI-P5x (serous) | 1 | 67.5 (active)
PBK (PDZ binding kinase) | Vehicle | OCI-P5x (serous) | 1 | 88
PBK (PDZ binding kinase) | Vehicle | OCI-P5x (serous) | 2 | 82.1
PBK (PDZ binding kinase) | Vehicle | OCI-P5x (serous) | 2 | 69.9 (active)
PBK (PDZ binding kinase) | Vehicle | OCI-P5x (serous) | 3 | 82.1
PBK (PDZ binding kinase) | Vehicle | OCI-P5x (serous) | 3 | 84.7
